Values from PubChem BioAssay AID652243 (Drosophila RNAi Screening Center, 2013).
The deposit covers about 24,000 reagents; below is a random part of those with a known target gene and a result. In the full data, 246 (1%) got an active call. 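Plates not normalised; calls are printed but the firefly/Renilla ratio behind them is not deposited; fold cut for lowering reported inconsistently.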 The raw values are shown without normalisation. The numbers tell different reagents against one gene apart. Names joined by + are all predicted targets of the reagent. Not given: the amount of reagent.

Purpose: 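Fly regulators of androgen-dependent reporter output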 (primary screen)
Cell system: Drosophila S2R+ cells
Knock-down reagent: long dsRNA against Drosophila genes
Timing: 72 h (48 h, then 24 h hormone)
Treatment: synthetic androgen R1881 at 10 nM for 24 h
Measured: 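Firefly light from an androgen-responsive reporter and Renilla control light per well, raw and unnormalised, for each of two replicates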
Scale: firefly reporter light: higher = more light from androgen-responsive reporter; Renilla control light: higher = more constitutive control signal (cell number, transfection)
Hit rule: 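Hit when the log firefly-to-Renilla ratio dropped or increased by a fixed fold versus the mean of GFP or LacZ controls across duplicate plates; lowering cut given as 1.5 and as 3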
Meaning of the calls: active = hit: reporter lowered or raised; inactive = no hit

| target gene | reagent | firefly reporter light, replicate 1 | firefly reporter light, replicate 2 | Renilla control light, replicate 1 | Renilla control light, replicate 2 | outcome |
| --- | --- | --- | --- | --- | --- | --- |
| Ufc1 | 1 | 1.27e6 | 1.31e6 | 2.21e6 | 1.73e6 | inactive |
| CG15739 | 1 | 3.52e5 | 3.93e5 | 3.21e6 | 2.32e6 | inactive |
| CG15739 | 2 | 2.86e5 | 3.83e5 | 1.43e6 | 9.66e5 | inactive |
| CG15539 | 1 | 2.57e5 | 2.14e5 | 3.03e6 | 3.31e6 | inactive |
| stg | 1 | 11103 | 6727 | 76732 | 65666 | inactive |
| stg | 2 | 3.24e5 | 3.49e5 | 4.97e5 | 5.55e5 | inactive |
| stg | 3 | 41878 | 38852 | 1.17e5 | 1.52e5 | active |
| CG32188 | 1 | 2.47e5 | 62154 | 3.11e5 | 1.43e5 | inactive |
| cdm | 1 | 48973 | 66862 | 3.89e5 | 4.88e5 | inactive |
| Nnf1b | 1 | 6.74e5 | 6.72e5 | 2.30e6 | 2.80e6 | inactive |
| Nnf1b | 2 | 4.62e5 | 3.57e5 | 1.15e6 | 9.90e5 | inactive |
| Dlc90F | 1 | 1.48e5 | 1.26e5 | 9.96e5 | 8.30e5 | inactive |
| alpha-Est4aPsi | 1 | 3.09e5 | 3.52e5 | 5.72e5 | 6.33e5 | inactive |
| CG10089 | 1 | 1.35e5 | 1.60e5 | 2.43e6 | 1.93e6 | inactive |
| CG10089 | 2 | 4.29e5 | 4.12e5 | 8.17e5 | 7.71e5 | inactive |
| foi | 1 | 1.66e5 | 1.59e5 | 2.17e6 | 2.03e6 | inactive |
| foi | 2 | 2.58e5 | 4.35e5 | 6.91e5 | 6.91e5 | inactive |
| Gr77a | 1 | 1.47e5 | 1.09e5 | 3.81e5 | 3.68e5 | inactive |
| Gr77a | 2 | 2.17e5 | 2.22e5 | 4.03e5 | 4.28e5 | inactive |
| caps | 1 | 1.66e5 | 1.69e5 | 2.25e6 | 2.08e6 | inactive |
| caps | 2 | 7.62e5 | 8.12e5 | 1.87e6 | 1.71e6 | inactive |
| Nep2 | 1 | 36808 | 49292 | 4.22e5 | 3.38e5 | inactive |
| Nep2 | 2 | 6.09e5 | 6.11e5 | 1.46e6 | 1.30e6 | inactive |
| CG12128 + CG1407 | 1 | 7.75e5 | 9.24e5 | 1.91e6 | 1.81e6 | inactive |
| CG4324 | 1 | 2.09e5 | 2.65e5 | 1.11e6 | 1.20e6 | inactive |
| CG4324 | 2 | 1.97e5 | 2.11e5 | 5.21e5 | 8.62e5 | inactive |
| ct | 1 | 26949 | 25793 | 4.99e5 | 3.98e5 | inactive |
| ct | 2 | 9.36e5 | 4.33e5 | 6.01e5 | 5.42e5 | inactive |
| CG1213 | 1 | 71620 | 36225 | 1.45e6 | 1.18e6 | inactive |
| Gr8a | 1 | 3.47e5 | 4.30e5 | 2.18e6 | 2.68e6 | inactive |
| ds | 1 | 57221 | 47121 | 5.79e5 | 4.65e5 | inactive |
| Gas41 | 1 | 7.34e5 | 5.46e5 | 1.48e6 | 1.24e6 | inactive |
| Fntb | 1 | 59073 | 52104 | 3.98e5 | 4.11e5 | inactive |
| Fntb | 2 | 9.33e5 | 6.85e5 | 1.51e6 | 1.03e6 | inactive |
| Non2 | 1 | 4.17e5 | 5.97e5 | 5.90e5 | 9.49e5 | inactive |
| Non2 | 2 | 1.03e6 | 1.06e6 | 1.03e6 | 8.78e5 | inactive |
| CG13130 (retired record) | 1 | 4.02e5 | 2.67e5 | 2.16e6 | 2.08e6 | inactive |
| CG13130 (retired record) | 2 | 8.64e5 | 9.56e5 | 1.45e6 | 1.56e6 | inactive |
| CG33339 | 1 | 6.12e5 | 1.04e6 | 1.14e6 | 1.91e6 | inactive |
| CG33339 | 2 | 4.09e5 | 4.85e5 | 1.09e6 | 1.09e6 | inactive |

Only “Renilla control light, replicate 1”, for 7 of the entries above:
Gr8a: 2.18e6
ds: 5.79e5
Gas41: 1.48e6
Fntb #1: 3.98e5
Fntb #2: 1.51e6
Non2 #1: 5.90e5
Non2 #2: 1.03e6

Continued:
| target gene | reagent | firefly reporter light, replicate 1 | firefly reporter light, replicate 2 | Renilla control light, replicate 1 | Renilla control light, replicate 2 | outcome |
| --- | --- | --- | --- | --- | --- | --- |
| Acp29AB | 1 | 1.63e5 | 1.92e5 | 9.45e5 | 7.86e5 | inactive |
| Socs16D | 1 | 8.92e5 | 1.04e6 | 1.77e6 | 2.13e6 | inactive |
| Socs16D | 2 | 5.48e5 | 3.87e5 | 4.73e5 | 2.84e5 | inactive |
| CG5001 | 1 | 87733 | 98445 | 9.29e5 | 7.63e5 | inactive |
| CG5001 | 2 | 3.83e5 | 3.28e5 | 6.23e5 | 3.57e5 | inactive |
| Uev1A | 1 | 6.53e5 | 5.53e5 | 1.66e6 | 2.25e6 | inactive |
| Lk6 | 1 | 4.84e5 | 3.17e5 | 95478 | 5.90e5 | inactive |
| Lk6 | 2 | 52006 | 67029 | 4.39e5 | 6.07e5 | inactive |
| Lk6 | 3 | 3.26e5 | 2.93e5 | 3.86e5 | 5.18e5 | active |
| Lk6 | 4 | – | – | – | – | inactive |
| sn | 1 | 1.67e5 | 2.33e5 | 2.12e6 | 2.24e6 | inactive |
| sn | 2 | 3.80e5 | 6.23e5 | 7.91e5 | 9.91e5 | inactive |
| Spf30 | 1 | 54942 | 43802 | 1.54e6 | 1.60e6 | inactive |
| CG5160 | 1 | 2.16e5 | 2.50e5 | 2.69e6 | 1.59e6 | inactive |
| CG5160 | 2 | 1.91e5 | 5.79e5 | 5.64e5 | 1.03e6 | inactive |
| CG6660 | 1 | 84440 | 68402 | 4.00e5 | 3.87e5 | inactive |
| CG9380 | 1 | 5.12e5 | 2.58e5 | 2.15e6 | 1.60e6 | inactive |
| Inos | 1 | 2.10e5 | 2.14e5 | 1.23e6 | 7.61e5 | inactive |
| Inos | 2 | 3.65e5 | 3.05e5 | 6.17e5 | 4.10e5 | inactive |
| ouib | 1 | 1.50e5 | 1.19e5 | 1.94e6 | 2.07e6 | inactive |
| Gasp | 1 | 68530 | 44002 | 5.58e5 | 5.09e5 | inactive |
| DUBAI + Tmem18 | 1 | 1.29e5 | 1.70e5 | 2.92e5 | 4.11e5 | inactive |
| CG5388 | 1 | 1.10e5 | 90396 | 2.45e6 | 2.59e6 | inactive |
| eIF4H2 | 1 | 49978 | 37841 | 7.72e5 | 4.96e5 | inactive |
| eIF4H2 | 2 | 2.58e5 | 2.19e5 | 7.26e5 | 9.11e5 | inactive |
| CG13135 | 1 | 1.28e5 | 96453 | 1.15e6 | 8.44e5 | inactive |
| CG13135 | 2 | 4.38e5 | 3.30e5 | 4.86e5 | 7.73e5 | inactive |
| wal | 1 | 1.15e6 | 4.38e5 | 1.25e6 | 1.08e6 | inactive |
| wal | 2 | 6.96e5 | 9.92e5 | 8.44e5 | 7.78e5 | inactive |
| Sce | 1 | 1.43e5 | 2.01e5 | 7.26e5 | 3.87e5 | inactive |
| Lap1 | 1 | 1.02e5 | 81849 | 1.84e6 | 1.84e6 | inactive |
| ATPsynepsilonL | 1 | 1.75e5 | 1.38e5 | 2.79e6 | 3.06e6 | inactive |
| scny | 1 | 5.95e5 | 6.29e5 | 9.79e5 | 1.35e6 | inactive |
| scny | 2 | 6.20e5 | 6.15e5 | 1.68e5 | 1.67e5 | inactive |
| scny | 3 | 1.89e5 | 1.81e5 | 4.42e5 | 5.09e5 | inactive |
